# Hit rate of the full screen: of about 320,000 compounds, about 22,000 (6.9%) were called active. The inconclusive results got no clear call from the source; some entries with a clear call stand among them for comparison. Calls follow the shape of the dose curve; as a rule, active = well fitted inhibition curve with a large enough effect; inconclusive = small, poorly fitted or top-dose-only effect, or another doubt; inactive = no such curve, though single readings can be large or run the other way. A potency beside an inconclusive call is a rough fit, not a confirmed value.
# Experiment: Primary qHTS for delayed death inhibitors of the malarial parasite plastid, 96 hour incubation
# Conditions: P. falciparum luciferase reporter growth; series mostly up to 28.7 µM
# In short: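 Readout is luminescence from an integrated firefly luciferase in P. falciparum. Red cells, 2% hematocrit and 0.05% parasitemia final, were cultured with compound through two parasite generations (96 hours) at 37 C, 5% CO2.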
# Potency is read from the fitted curve at half-maximal effect.
row,Compound,Potency
1,CCc1ccc(OCc2n[nH]c(=S)n2C(C)CCCC(C)C)cc1 (stereo unspecified),"inconclusive: 10.4 µM [inhibitor, single point]"
2,Fc1ccc(-c2nnc(-c3ccc(Cl)cc3Cl)o2)cc1,inactive
3,N#Cc1c(NC(=O)c2ccco2)sc2c1CCC2,"inconclusive: 0.165 µM [inhibitor, full curve, poor fit]"
4,O=CNCC(=O)NCCc1ccc(Cl)cc1,"inconclusive: 0.0037 µM [inhibitor, full curve, poor fit]"
5,CC(C)(C)SCCNC(=O)CN1C(=O)c2ccccc2S1(=O)=O,inactive
6,O=C1N(Cc2cccc(Cl)c2)C[C@@H]2C[C@@H](c3c[nH]c4ccccc34)N3CCC[C@@]123,"inconclusive: 18.5 µM [inhibitor, single point]"
7,Cn1c(C=O)c(C#Cc2ccccc2)c2ccccc21,"inconclusive: 13.1 µM [inhibitor, single point]"
8,CCOc1ccc(S(=O)(=O)N2CCCCC2)cc1NS(=O)(=O)c1cccs1,"inconclusive: 7.38 µM [inhibitor, partial curve]"
9,O=C(c1ccc(F)cc1)N(C(=O)c1ccc(F)cc1)c1ncccn1,inactive
10,CCn1ncc(C2=NOC(C(=O)Nc3c(C)nn(Cc4ccc(F)cc4)c3C)C2)c1C (stereo unspecified),inactive
11,COc1ccc(/C=C2\CCC(C3CCCC3)C2=O)cc1Cn1nc(C)cc1C (stereo unspecified),"inconclusive: 13.1 µM [inhibitor, single point]"
12,CCOC(=O)C1=C(O)CSC1=Nc1ccc(Cl)cc1,active: 10.4 µM
13,Cc1cccc(N(C(=O)c2sc(C)nc2C)C(C(=O)NCC2CCCO2)c2ccccc2)c1 (stereo unspecified),inactive
14,CSc1c(C#N)c(N)nc2sc(C(=O)c3ccc(Cl)c(Cl)c3)c(N)c12,"inconclusive: 0.0738 µM [inhibitor, full curve, poor fit]"
15,O=C(Nc1ccc(F)c([N+](=O)[O-])c1)N1C[C@H]2C[C@@H](C1)c1cccc(=O)n1C2,"inconclusive: 18.5 µM [inhibitor, single point]"
16,O=c1c2c3c(sc2nc(N2CCNCC2)n1CCc1ccccc1)CCCCC3,inactive
17,CCOC(=O)c1sc(=S)n(-c2ccc(C)cc2)c1SC,active: 0.465 µM
18,COc1ccc(Cl)cc1S(=O)(=O)Nc1noc2ccccc12,inactive
19,CCOC(=O)c1cc2c(n(-c3ccc(C)cc3)c1=O)CCCC2=O,inactive
20,COc1ccc(-c2cc3nc(C)cc(C)n3n2)cc1,inactive
21,COc1cc(OC)cc(-c2nnc(SCc3cccc(C(=O)O)c3)o2)c1,"inconclusive: 0.208 µM [inhibitor, full curve, poor fit]"
22,CC1(C)CC2(CC(c3ccccc3F)c3cc(Cl)c(O)cc3O2)NC(=S)N1 (stereo unspecified),"inconclusive: 13.1 µM [inhibitor, partial curve, poor fit]"
23,COc1ccc(C(=O)NCCc2nnc(SCC(=O)Nc3ccccc3C(C)C)n2C)cc1,"inconclusive: 0.131 µM [inhibitor, full curve, poor fit]"
24,COC(=O)c1[nH]nc(C(=O)OC(C)(C)C)c1-c1ccccc1,inactive
25,O=C(COc1ccccc1)N(Cc1ccco1)C1CCS(=O)(=O)C1 (stereo unspecified),inactive
26,CCC(NC(=O)Cc1c(C)c2cc3c(cc2oc1=O)OC(C)(C)CC3)C(=O)O (stereo unspecified),inactive

row,Compound,Potency
1,CCN(CC)CCCn1c2c(c(SCC(=O)Nc3ccc4c(c3)OCO4)nc1=O)CCC2,"inconclusive: 18.5 µM [inhibitor, single point]"
2,Fc1ccc(C(Nc2ccccn2)c2c[nH]c3ccccc23)cc1 (stereo unspecified),"inconclusive: 11.7 µM [inhibitor, single point]"
3,CC(=O)c1ccc(N2CCN(C(=O)C3CCN(S(=O)(=O)c4ccc5c(c4)CC(C)N5C(C)=O)CC3)CC2)cc1 (stereo unspecified),"inconclusive: 1.47 µM [inhibitor, full curve]"
4,CN(c1ccccc1)S(=O)(=O)c1cccc(NC(=O)c2cc(=O)c3ccccc3o2)c1,active: 10.4 µM
5,c1ccc(-c2cc3ccccc3nc2N2CCCC2)cc1,inactive
6,CC(C)c1onc(C(=O)N2CCC3(CC2)OCCO3)c1[N+](=O)[O-],"inconclusive: 18.5 µM [inhibitor, single point]"
7,Cc1ccc(SC(C)C(=O)NCCC2=CCCCC2)cc1 (stereo unspecified),active: 11.7 µM
8,O=C(NCc1ccc2c(c1)OCO2)c1ccc(S(=O)(=O)N2CCOCC2)cc1,"inconclusive: 11.7 µM [inhibitor, partial curve, poor fit]"
9,O=c1sc2ccccc2n1Cc1ccccc1,"inconclusive: 0.037 µM [inhibitor, full curve, poor fit]"
10,CC(C)COP(=O)(c1ccc(N(C)C)cc1)C(O)c1ccc(Br)cc1 (stereo unspecified),active: 10.4 µM
11,COc1cccc(O)c1CN1CCCC(C(=O)c2cccc(C(F)(F)F)c2)C1 (stereo unspecified),"inconclusive: 14.7 µM [inhibitor, single point]"
12,CC(C)NC(=O)c1ccc2c(c1)N(CC(=O)Nc1ccccc1F)C(=O)C(C)(C)O2,inactive
13,COc1cccc(CNC(=O)c2nnn(CC(=O)Nc3c(C)cccc3C)c2N)c1,"inconclusive: 4.65 µM [inhibitor, partial curve]"
14,O=[N+]([O-])c1ccc(CN2CCN(c3nc4ccccc4s3)CC2)cc1,"inconclusive: 2.94 µM [inhibitor, partial curve, poor fit]"
15,CCCCC1=CC2=C(c3ccco3)C(=O)C(C)(OC(=O)c3ccc(OC)cc3)C(=O)C2=CN1CC(C)C (stereo unspecified),"inconclusive: 0.0738 µM [inhibitor, full curve, poor fit]"
16,O=P(O)(O)O,inactive
17,CCOC(=O)c1c(NC(=O)COc2ccccc2C#N)sc2c1CC(C)(C)NC2(C)C,active: 5.22 µM
18,CCN(CC)c1ccc(C(=O)OCC(=O)Nc2cc(C)on2)cc1,inactive
19,O=C(Nc1cccc(C(=O)N2CCN(Cc3ccccc3)CC2)c1)c1ccccc1,"inconclusive: 18.5 µM [inhibitor, single point]"
20,CCn1c(CSc2nc3ccccc3s2)nnc1SCC(=O)c1ccc(Cl)cc1,"inconclusive: 10.4 µM [inhibitor, partial curve]"
21,COc1ccc(-c2cc(-c3ccccc3)n3ncnc3n2)cc1,inactive
22,CCN(CC)c1ccc(/C=C(\C#N)C(=O)NCc2ccco2)cc1,"inconclusive: 16.5 µM [inhibitor, single point]"
23,Cc1nc(SCC(=O)N2CC(=O)Nc3ccccc32)c2c(C)c(C)sc2n1,inactive
24,Cc1ccc(-n2nc(C)c(NC(=O)CCl)c2C)cc1,inactive
25,Cc1ccc(NC(=O)C(C)N2CCOCC2)c(C(=O)c2ccccc2)c1 (stereo unspecified),"inconclusive: 6.57 µM [inhibitor, partial curve]"
26,Cc1ccccc1-n1nc2c(c1NC(=O)c1c(-c3ccccc3Cl)noc1C)CSC2,"inconclusive: 7.38 µM [inhibitor, partial curve]"

# As entered above:
# For Potency, COc1ccc(-c2cc(-c3ccccc3)n3ncnc3n2)cc1 is entered as inactive
# For Potency, O=[N+]([O-])c1ccc(CN2CCN(c3nc4ccccc4s3)CC2)cc1 is entered as inconclusive: 2.94 µM [inhibitor, partial curve, poor fit]
# For Potency, CCN(CC)CCCn1c2c(c(SCC(=O)Nc3ccc4c(c3)OCO4)nc1=O)CCC2 is entered as inconclusive: 18.5 µM [inhibitor, single point]
# For Potency, CC(C)NC(=O)c1ccc2c(c1)N(CC(=O)Nc1ccccc1F)C(=O)C(C)(C)O2 is entered as inactive
# For Potency, CC(C)COP(=O)(c1ccc(N(C)C)cc1)C(O)c1ccc(Br)cc1 (stereo unspecified) is entered as active: 10.4 µM

# (cont.)

row,Compound,Potency
1,N#Cc1nc(-c2cccs2)oc1NCc1ccc(Cl)cc1,inactive
2,CN(C(=O)c1cc(-n2cnnc2)ccc1Cl)c1ccccc1,inactive
3,COc1ccc(NC(=O)C(NC(C)=O)C(=O)Nc2ccc(F)cc2)cc1 (stereo unspecified),inactive
4,CC1=NOC(=O)/C1=C/c1ccc(O)c(Cl)c1,"inconclusive: 18.5 µM [inhibitor, single point]"
5,COCCCNC(=O)c1c[nH]c2ccc(S(=O)(=O)N3CCC(C)CC3)cc2c1=O,"inconclusive: 0.415 µM [inhibitor, full curve]"
6,CC1(C)Cc2noc(N)c2C(C)(C)N1OC(=O)c1ccco1,"inconclusive: 18.5 µM [inhibitor, partial curve, poor fit]"
7,S=C(NCCc1ccccc1)Nc1cnc2ccccc2c1,inactive
8,COc1cccc(N(CC(=O)NC2CCCC2)C(=O)CCCC(=O)Nc2ccccn2)c1,inactive
9,CS(=O)(=O)N1CCN(c2ccccc2NC(=S)NC(=O)c2ccccc2[N+](=O)[O-])CC1,"inconclusive: 9.28 µM [inhibitor, partial curve]"
10,O=C1c2ccccc2C2(c3ccccc3)N1CCN2C(=O)C(Cl)(Cl)Cl (stereo unspecified),active: 0.828 µM
11,COCC(C)n1c(SCC(=O)N2CCc3ccccc3C2)nc2ccccc2c1=O (stereo unspecified),active: 7.38 µM
12,O=C(c1n[nH]c(=O)c2ccccc12)N1CCN(c2ccc(F)cc2)CC1,inactive
13,O=c1cc(CSc2nnc(-c3ccccc3)o2)c2ccccc2[nH]1,"inconclusive: 3.7 µM [inhibitor, single point]"
14,CCc1ccc(O)c(CNCCNCc2cc(CC)ccc2O)c1,active: 5.86 µM
15,O=C(COC(=O)c1c[nH]c(=O)[nH]c1=O)Nc1ccccc1F,"inconclusive: 13.1 µM [inhibitor, partial curve, poor fit]"
16,Nc1ccc(Sc2nc3ccccc3[nH]2)cc1,inactive
17,Cc1ccccc1-c1nsc(SCC(=O)Nc2ccc3c(c2)OCO3)n1,inactive
18,Cc1ccc(S(=O)(=O)NCCS(=O)(=O)N2CCN(c3ccccc3)CC2)cc1,inactive
19,CCOCCCNC(=O)C1CCCN1C(=O)Nc1ccccc1[N+](=O)[O-] (stereo unspecified),"inconclusive: 18.5 µM [inhibitor, single point]"
20,Nc1ccc(-c2nc3ccccc3[nH]2)cc1,inactive
21,C/C=C(\C)C(=O)OC1c2c(ccc3ccc(=O)oc23)OC(C)(C)C1OC(C)=O (stereo unspecified),"inconclusive: 18.5 µM [inhibitor, single point]"
22,CN(C)c1nc(Nc2ccc(Cl)c(Cl)c2)nc(N(C)C)n1,inactive
23,O=C(CSc1ncnc2c1nnn2Cc1ccccc1F)NCC1CCCO1 (stereo unspecified),"inconclusive: 11.7 µM [inhibitor, single point]"
24,Nc1nc(NCC2CCCO2)nc(Nc2ccccc2F)c1[N+](=O)[O-] (stereo unspecified),"inconclusive: 14.7 µM [inhibitor, single point]"

# — PubChem BioAssay AID504834 (National Center for Advancing Translational Sciences (NCATS), 2011)
